{"source": "patent US6177438A", "about": "“Morphinan derivatives and pharmaceutical use thereof” (priority 1993, dated 2001)", "tested_on": "acetic acid-induced writhing in ddy mice", "assay": "animal or person", "assay_type": "in vivo, 5 week old ddy mice", "details": "Mus musculus, sc", "method": "5 week old ddy mice were used in this test. After intraperitoneal administration of 0.1 ml of 0.6% aqueous acetic acid per 10 g of body weight, the number of writhing reactions that occurred in 10 minutes starting 10 minutes after administration was evaluated for the indicator. The test drug was administered subcutaneously into the backs of the animals 15 minutes before administration of acetic acid."}
{"smiles": "CN1CC[C@]23c4c5ccc(O)c4O[C@H]2[C@@H](O)C=C[C@H]3[C@H]1C5", "note": "[Morphine, reference compound]", "values": [{"measurement": "ED50", "value": 0.55, "unit": "mg/kg"}]}
